# From the supplement of paper PMC8728848
# This is one part of the list.
# Key:
# Test in all cases: glycan array binding signal (z-score within array); higher = stronger binding
# Settings in all cases: glycan notation: IUPAC condensed, linker removed
# [1] = target: Neu5Ac(a2-3)Gal(b1-3)[Fuc(a1-4)]GlcNAc
# Procedure, shortened: (§1)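 Arrays were curated from the Consortium for Functional Glycomics database, 3228 in total, and kept only where the protein sequence was available. Binding is expressed as a within-array Z-score. This score was averaged across arrays of the same protein sequence at different concentrations or buffers and across linkers, and negative values can be read as non-binding.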
# [2] = target: Neu5Ac(a2-3)Gal(b1-3)[Fuc(a1-4)]GlcNAc(b1-3)Gal(b1-3)[Fuc(a1-4)]GlcNAc
# Procedure, shortened: as §1
# [3] = target: Neu5Ac(a2-3)Gal(b1-3)[Fuc(a1-4)]GlcNAc(b1-3)Gal(b1-4)[Fuc(a1-3)]GlcNAc
# Procedure, shortened: as §1
# [4] = target: Neu5Ac(a2-3)Gal(b1-3)[GlcNAc(b1-6)]GalNAc
# Procedure, shortened: as §1
# [5] = target: Neu5Ac(a2-3)Gal(b1-3)[Neu5Ac(a2-6)]GalNAc
# Procedure, shortened: as §1
# [6] = target: Neu5Ac(a2-3)Gal(b1-3)[Neu5Ac(a2-6)]GlcNAc(b1-3)[Fuc(a1-3)[Gal(b1-4)]GlcNAc(b1-6)]Gal(b1-4)Glc
# Procedure, shortened: as §1
# [7] = target: Neu5Ac(a2-3)Gal(b1-3)]Neu5Ac(a2-3)Gal(b1-4)]GlcNAc
# Procedure, shortened: as §1
# Neu5Ac(a2-3)Gal(b1-4)Glc = target: Neu5Ac(a2-3)Gal(b1-4)Glc
# Procedure, shortened: as §1
# [8] = target: Neu5Ac(a2-3)Gal(b1-4)GlcNAc
# Procedure, shortened: as §1
# [9] = target: Neu5Ac(a2-3)Gal(b1-4)GlcNAc(b1-2)Man
# Procedure, shortened: as §1
# [10] = target: Neu5Ac(a2-3)Gal(b1-4)GlcNAc(b1-2)Man(a1-3)[GlcNAc(b1-4)][Neu5Ac(a2-3)Gal(b1-4)GlcNAc(b1-2)Man(a1-6)]Man(b1-4)GlcNAc(b1-4)GlcNAc
# Procedure, shortened: as §1
# [11] = target: Neu5Ac(a2-3)Gal(b1-4)GlcNAc(b1-2)Man(a1-3)[Neu5Ac(a2-3)Gal(b1-4)GlcNAc(b1-2)Man(a1-6)]Man(b1-4)GlcNAc(b1-4)GlcNAc
# Procedure, shortened: as §1
# [12] = target: Neu5Ac(a2-3)Gal(b1-4)GlcNAc(b1-2)Man(a1-3)[Neu5Ac(a2-3)Gal(b1-4)GlcNAc(b1-2)Man(a1-6)]Man(b1-4)GlcNAc(b1-4)[Fuc(a1-6)]GlcNAc
# Procedure, shortened: as §1
# [13] = target: Neu5Ac(a2-3)Gal(b1-4)GlcNAc(b1-2)Man(a1-3)[Neu5Ac(a2-6)Gal(b1-4)GlcNAc(b1-2)Man(a1-6)]Man(b1-4)GlcNAc(b1-4)GlcNAc
# Procedure, shortened: as §1
# [14] = target: Neu5Ac(a2-3)Gal(b1-4)GlcNAc(b1-2)[Neu5Ac(a2-3)Gal(b1-4)GlcNAc(b1-4)]Man(a1-3)[GlcNAc(b1-4)][Neu5Ac(a2-3)Gal(b1-4)GlcNAc(b1-2)[Neu5Ac(a2-3)Gal(b1-4)GlcNAc(b1-6)]Man(a1-6)]Man(b1-4)GlcNAc(b1-4)GlcNAc
# Procedure, shortened: as §1
# [15] = target: Neu5Ac(a2-3)Gal(b1-4)GlcNAc(b1-2)[Neu5Ac(a2-3)Gal(b1-4)GlcNAc(b1-4)]Man(a1-3)[GlcNAc(b1-4)][Neu5Ac(a2-3)Gal(b1-4)GlcNAc(b1-4)Man(a1-6)]Man(b1-4)GlcNAc(b1-4)GlcNAc
# Procedure, shortened: as §1
# [16] = target: Neu5Ac(a2-3)Gal(b1-4)GlcNAc(b1-2)[Neu5Ac(a2-3)Gal(b1-4)GlcNAc(b1-6)]Man(a1-6)[Neu5Ac(a2-3)Gal(b1-4)GlcNAc(b1-2)Man(a1-3)]Man(b1-4)GlcNAc(b1-4)GlcNAc
# Procedure, shortened: as §1
# [17] = target: Neu5Ac(a2-3)Gal(b1-4)GlcNAc(b1-2)[Neu5Ac(a2-3)Gal(b1-4)GlcNAc(b1-6)]Man(a1-6)[Neu5Ac(a2-3)Gal(b1-4)GlcNAc(b1-2)Man(a1-3)][GlcNAc(b1-4)]Man(b1-4)GlcNAc(b1-4)GlcNAc
# Procedure, shortened: as §1
# [18] = target: Neu5Ac(a2-3)Gal(b1-4)GlcNAc(b1-3)Gal
# Procedure, shortened: as §1
# [19] = target: Neu5Ac(a2-3)Gal(b1-4)GlcNAc(b1-3)Gal(b1-3)GlcNAc
# Procedure, shortened: as §1
# [20] = target: Neu5Ac(a2-3)Gal(b1-4)GlcNAc(b1-3)Gal(b1-4)GlcNAc
# Procedure, shortened: as §1
# [21] = target: Neu5Ac(a2-3)Gal(b1-4)GlcNAc(b1-3)Gal(b1-4)GlcNAc(b1-2)Man(a1-3)[Neu5Ac(a2-3)Gal(b1-4)GlcNAc(b1-3)Gal(b1-4)GlcNAc(b1-2)Man(a1-6)]Man(b1-4)GlcNAc(b1-4)GlcNAc
# Procedure, shortened: as §1
# [22] = target: Neu5Ac(a2-3)Gal(b1-4)GlcNAc(b1-3)Gal(b1-4)GlcNAc(b1-3)Gal(b1-4)GlcNAc
# Procedure, shortened: as §1
# [23] = target: Neu5Ac(a2-3)Gal(b1-4)GlcNAc(b1-3)Gal(b1-4)GlcNAc(b1-3)Gal(b1-4)GlcNAc(b1-2)Man(a1-3)[Neu5Ac(a2-3)Gal(b1-4)GlcNAc(b1-3)Gal(b1-4)GlcNAc(b1-3)Gal(b1-4)GlcNAc(b1-2)Man(a1-6)]GalNAc
# Procedure, shortened: as §1
# [24] = target: Neu5Ac(a2-3)Gal(b1-4)GlcNAc(b1-3)Gal(b1-4)GlcNAc(b1-3)GalNAc
# Procedure, shortened: as §1
# [25] = target: Neu5Ac(a2-3)Gal(b1-4)GlcNAc(b1-3)Gal(b1-4)GlcNAc(b1-3)[Neu5Ac(a2-3)Gal(b1-4)GlcNAc(b1-3)Gal(b1-4)GlcNAc(b1-6)]GalNAc
# Procedure, shortened: as §1
# [26] = target: Neu5Ac(a2-3)Gal(b1-4)GlcNAc(b1-3)Gal(b1-4)GlcNAc(b1-6)[Gal(b1-3)]GalNAc
# Procedure, shortened: as §1
# [27] = target: Neu5Ac(a2-3)Gal(b1-4)GlcNAc(b1-3)Gal(b1-4)[Fuc(a1-3)]GlcNAc
# Procedure, shortened: as §1
# [28] = target: Neu5Ac(a2-3)Gal(b1-4)GlcNAc(b1-3)GalNAc
# Procedure, shortened: as §1
# [29] = target: Neu5Ac(a2-3)Gal(b1-4)GlcNAc(b1-3)[Neu5Ac(a2-3)Gal(b1-4)GlcNAc(b1-6)]GalNAc
# Procedure, shortened: as §1
binder,measurement,setting,value
PX14343F-bfa-562-20-562 (Bacteroides fragilis) (protein) CDDFLDSFPQDTVTNENFWKSKEDADKVLVDIYASLLPKDAIFFDEAMSDNAYLVWDWWGGAQQVANGSYTTSGEIPTNRWNGSYEVIRKCWFLLEGIEKIEDISEQDKNKIIGETYFMLAYNYYVLTSYFGDVPLVTKTLAIPESKQLVRTPKAEVVDYAINKLKEAAVMLEGLSQEKGRVTADACRFLIARMYLYNGDYSNVLETVKLLEGKYQLYREGDTPYEDLFSGVAENSCEVILSVVCDKRVGEIYTSHGGNGIMLLKGITGEDPYRGVTPSGSLVDAYPMADGRLIHEAGSSYDPKKPYEGRDPRFYQSIVYPTGQIKYLDVETGTVKERLYDPEDPTTVPEHQYNYSQPSATGYMWNKYIDYSVYAMNSVWDCTNDIIVFRYADVLLMKAEALLQTKGESAKEEVCNLIDQLRDRCSCGRVHRENYNSKDELMELLKNERRIELANEGLRYMDLIRWKDAEKNTIVTGVGLTGQMYGAYMRKDGVGKDDKTVDVDNTPRRYIETRYFNASKGYLFPIPQKERDLNPNLTQNPNW,glycan array binding signal (z-score),[1],-0.87
same,glycan array binding signal (z-score),[2],-0.121
same,glycan array binding signal (z-score),[3],0.048
same,glycan array binding signal (z-score),[4],-0.515
same,glycan array binding signal (z-score),[5],-0.574
same,glycan array binding signal (z-score),[6],-0.957
same,glycan array binding signal (z-score),[7],-0.4
same,glycan array binding signal (z-score),Neu5Ac(a2-3)Gal(b1-4)Glc,-0.605
same,glycan array binding signal (z-score),[8],-0.665
same,glycan array binding signal (z-score),[9],1.07
same,glycan array binding signal (z-score),[10],0.338
same,glycan array binding signal (z-score),[11],-0.132
same,glycan array binding signal (z-score),[12],1.29
same,glycan array binding signal (z-score),[13],0.404
same,glycan array binding signal (z-score),[14],-0.511
same,glycan array binding signal (z-score),[15],-0.105
same,glycan array binding signal (z-score),[16],0.73
same,glycan array binding signal (z-score),[17],-0.512
same,glycan array binding signal (z-score),[18],-0.842
same,glycan array binding signal (z-score),[19],0.659
same,glycan array binding signal (z-score),[20],0.486
same,glycan array binding signal (z-score),[21],-0.019
same,glycan array binding signal (z-score),[22],0.314
same,glycan array binding signal (z-score),[23],1.17
same,glycan array binding signal (z-score),[24],-0.095
same,glycan array binding signal (z-score),[25],1.61
same,glycan array binding signal (z-score),[26],-0.22
same,glycan array binding signal (z-score),[27],-0.419
same,glycan array binding signal (z-score),[28],0.102
same,glycan array binding signal (z-score),[29],-0.067

# Some of the entries so far, as tab-separated lines.
binder	measurement	setting	value
PX14343F-bfa-562-20-562 (Bacteroides fragilis) (protein) CDDFLDSFPQDTVTNENFWKSKEDADKVLVDIYASLLPKDAIFFDEAMSDNAYLVWDWWGGAQQVANGSYTTSGEIPTNRWNGSYEVIRKCWFLLEGIEKIEDISEQDKNKIIGETYFMLAYNYYVLTSYFGDVPLVTKTLAIPESKQLVRTPKAEVVDYAINKLKEAAVMLEGLSQEKGRVTADACRFLIARMYLYNGDYSNVLETVKLLEGKYQLYREGDTPYEDLFSGVAENSCEVILSVVCDKRVGEIYTSHGGNGIMLLKGITGEDPYRGVTPSGSLVDAYPMADGRLIHEAGSSYDPKKPYEGRDPRFYQSIVYPTGQIKYLDVETGTVKERLYDPEDPTTVPEHQYNYSQPSATGYMWNKYIDYSVYAMNSVWDCTNDIIVFRYADVLLMKAEALLQTKGESAKEEVCNLIDQLRDRCSCGRVHRENYNSKDELMELLKNERRIELANEGLRYMDLIRWKDAEKNTIVTGVGLTGQMYGAYMRKDGVGKDDKTVDVDNTPRRYIETRYFNASKGYLFPIPQKERDLNPNLTQNPNW	glycan array binding signal (z-score)	[6]	-0.957
same	glycan array binding signal (z-score)	[8]	-0.665
